No constants are given. Whether binding was seen depends on the method and setting.

Amino acid sequences for entries named in this document (tags omitted). Residues count along the entry.
UniProt P41746, residues 19-159: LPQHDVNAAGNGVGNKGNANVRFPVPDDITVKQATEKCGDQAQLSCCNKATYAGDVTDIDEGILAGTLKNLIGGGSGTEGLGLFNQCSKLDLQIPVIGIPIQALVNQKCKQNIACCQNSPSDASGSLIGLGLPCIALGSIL
UniProt P13591, residues 20-718: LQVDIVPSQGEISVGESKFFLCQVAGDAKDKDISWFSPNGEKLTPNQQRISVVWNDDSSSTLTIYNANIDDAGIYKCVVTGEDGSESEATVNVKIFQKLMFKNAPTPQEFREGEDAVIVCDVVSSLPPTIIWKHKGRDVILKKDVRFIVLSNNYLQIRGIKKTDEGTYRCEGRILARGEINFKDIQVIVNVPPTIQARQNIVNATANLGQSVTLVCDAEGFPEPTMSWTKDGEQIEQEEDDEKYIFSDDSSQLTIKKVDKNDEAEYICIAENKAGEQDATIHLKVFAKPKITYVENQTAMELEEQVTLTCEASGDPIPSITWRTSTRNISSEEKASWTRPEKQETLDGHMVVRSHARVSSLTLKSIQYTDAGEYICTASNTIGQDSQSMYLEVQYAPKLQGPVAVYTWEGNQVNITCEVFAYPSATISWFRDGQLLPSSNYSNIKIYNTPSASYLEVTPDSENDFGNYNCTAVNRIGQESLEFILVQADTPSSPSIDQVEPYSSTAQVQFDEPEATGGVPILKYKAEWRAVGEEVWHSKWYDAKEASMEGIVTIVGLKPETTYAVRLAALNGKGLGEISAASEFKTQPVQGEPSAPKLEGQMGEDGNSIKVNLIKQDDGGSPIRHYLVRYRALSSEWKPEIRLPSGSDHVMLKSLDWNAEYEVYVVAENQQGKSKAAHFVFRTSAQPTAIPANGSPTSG

The target of the assay is RodA protein (surface rodlet protein/hydrophobin) (Aspergillus fumigatus) (UniProt P41746). The assay can be described thus: ELISA; fungal cell-wall components coated on 96-well microtiter plates (10 ug/well stated for polysaccharides) overnight at RT; blocked with PBS + 1% BSA; recombinant CD56 0.1 mg/mL in PBS + 1% BSA, RT, 1 h; detected with anti-CD56 antibody and peroxidase-conjugated anti-mouse IgG, OD 492 nm; both …. Background: ELISA stands for enzyme-linked immunosorbent assay.

“recombinant CD56 protein (from UniProt P13591 20-718) (receptor)”: the binding entry is “no binding (tested: 0.1 mg/mL)”.

Values taken from publication PMC11216564.
